Among the data in publication doi:10.1101/182204 are binding values, retold here.

This assay addresses T1, MBP-LATS2 (UniProt Q9NRM7).
T1 sequence: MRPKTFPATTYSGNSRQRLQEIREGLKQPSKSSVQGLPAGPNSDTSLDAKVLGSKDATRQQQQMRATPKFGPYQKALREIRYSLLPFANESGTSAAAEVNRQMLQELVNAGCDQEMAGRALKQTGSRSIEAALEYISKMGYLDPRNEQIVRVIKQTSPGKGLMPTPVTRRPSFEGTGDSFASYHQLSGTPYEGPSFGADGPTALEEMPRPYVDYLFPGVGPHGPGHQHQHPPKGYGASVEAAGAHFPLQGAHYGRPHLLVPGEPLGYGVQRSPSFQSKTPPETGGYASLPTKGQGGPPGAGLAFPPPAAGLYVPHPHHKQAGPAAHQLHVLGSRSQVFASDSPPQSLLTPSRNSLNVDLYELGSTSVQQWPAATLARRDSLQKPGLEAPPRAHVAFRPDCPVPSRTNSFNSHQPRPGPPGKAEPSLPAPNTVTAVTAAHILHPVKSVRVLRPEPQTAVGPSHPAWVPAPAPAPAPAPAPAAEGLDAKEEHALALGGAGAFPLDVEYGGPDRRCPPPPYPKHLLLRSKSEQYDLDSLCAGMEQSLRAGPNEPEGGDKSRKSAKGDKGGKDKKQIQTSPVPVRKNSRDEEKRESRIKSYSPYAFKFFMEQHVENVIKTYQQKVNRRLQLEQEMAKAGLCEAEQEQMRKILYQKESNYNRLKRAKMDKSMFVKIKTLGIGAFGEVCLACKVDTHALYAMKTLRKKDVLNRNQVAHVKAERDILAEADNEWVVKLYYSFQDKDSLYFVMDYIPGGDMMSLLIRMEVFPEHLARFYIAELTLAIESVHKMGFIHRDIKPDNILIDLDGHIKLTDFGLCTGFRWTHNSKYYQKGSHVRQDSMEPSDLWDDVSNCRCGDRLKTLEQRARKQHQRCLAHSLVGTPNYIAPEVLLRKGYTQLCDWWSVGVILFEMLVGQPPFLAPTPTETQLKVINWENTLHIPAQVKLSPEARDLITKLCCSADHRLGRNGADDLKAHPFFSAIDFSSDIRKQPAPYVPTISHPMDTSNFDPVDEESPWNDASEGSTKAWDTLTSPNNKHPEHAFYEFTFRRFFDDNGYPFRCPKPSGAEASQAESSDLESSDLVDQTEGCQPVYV
Put plainly: pull-down.

These are yes or no findings as the source states them, for the method shown. Some binding calls cover weakened binding; strength is not graded here. Tags and fused reporters may be left off the sequences shown.

B1: MOB1A-6xHis (protein, UniProt Q9H8S9 1-216)
chain: MSFLFSSRSSKTFKPKKNIPEGSHQYELLKHAEATLGSGNLRQAVMLPEGEDLNEWIAVNTVDFFNQINMLYGTITEFCTEASCPVMSAGPRYEYHWADGTNIKKPIKCSAPKYIDYLMTWVQDQLDDETLFPSKIGVPFPKNFMSVAKTILKRLFRVYAHIYHQHFDSVMQLQEEAHLNTSFKHFIFFVQEFNLIDRRELAPLQELIEKLGSKDR
As for B1, the binding entry was “binds”.

B2: GST-TRIP6 (protein, UniProt Q15654 1-476)
chain: MSGPTWLPPKQPEPARAPQGRAIPRGTPGPPPAHGAALQPHPRVNFCPLPSEQCYQAPGGPEDRGPAWVGSHGVLQHTQGLPADRGGLRPGSLDAEIDLLSSTLAELNGGRGHASRRPDRQAYEPPPPPAYRTGSLKPNPASPLPASPYGGPTPASYTTASTPAGPAFPVQVKVAQPVRGCGPPRRGASQASGPLPGPHFPLPGRGEVWGPGYRSQREPGPGAKEEAAGVSGPAGRGRGGEHGPQVPLSQPPEDELDRLTKKLVHDMNHPPSGEYFGQCGGCGEDVVGDGAGVVALDRVFHVGCFVCSTCRAQLRGQHFYAVERRAYCEGCYVATLEKCATCSQPILDRILRAMGKAYHPGCFTCVVCHRGLDGIPFTVDATSQIHCIEDFHRKFAPRCSVCGGAIMPEPGQEETVRIVALDRSFHIGCYKCEECGLLLSSEGECQGCYPLDGHILCKACSAWRIQELSATVTTDC
B2: the binding result is listed as “binds”.
